Results from patent US20060193821.
For some of these results: The comparison behind a weaker result is the experiment's own reference, which may not be listed here. For some of these results: The exact form of at least one protein or probe is not confirmed. For some of these results: The direction of at least one scale is not stated here.

Chains of the proteins cited; added tags and fusions are not shown. Chains listed by the source or under a name are the forms on record and can include a tag or linker.
IL-23 (human, p19/p40 heterodimer) (Homo sapiens), one chain, as listed by the source, chain 2 of 2: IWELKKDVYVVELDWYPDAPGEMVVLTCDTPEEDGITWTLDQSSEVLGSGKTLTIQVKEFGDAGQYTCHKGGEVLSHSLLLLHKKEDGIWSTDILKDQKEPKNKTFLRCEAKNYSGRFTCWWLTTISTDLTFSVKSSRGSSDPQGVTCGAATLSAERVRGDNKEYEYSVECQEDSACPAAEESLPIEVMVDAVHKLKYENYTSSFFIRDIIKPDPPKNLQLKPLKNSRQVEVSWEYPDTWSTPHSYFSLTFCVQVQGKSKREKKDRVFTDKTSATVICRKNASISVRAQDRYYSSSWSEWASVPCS
IL-23 (mouse, p19/p40 heterodimer) (Mus musculus), one chain, as listed by the source, chain 2 of 2: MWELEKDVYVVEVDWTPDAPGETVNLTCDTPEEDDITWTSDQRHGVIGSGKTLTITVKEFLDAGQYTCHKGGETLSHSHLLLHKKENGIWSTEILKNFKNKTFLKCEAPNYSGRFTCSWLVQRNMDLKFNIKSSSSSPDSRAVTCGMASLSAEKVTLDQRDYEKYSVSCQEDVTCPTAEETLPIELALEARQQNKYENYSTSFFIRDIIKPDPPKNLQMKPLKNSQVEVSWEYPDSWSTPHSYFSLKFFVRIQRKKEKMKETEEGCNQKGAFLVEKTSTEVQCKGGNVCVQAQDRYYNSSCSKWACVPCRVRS
IL-23 (mouse, p19/p40 heterodimer) (Mus musculus), one chain, as listed by the source, chain 1 of 2: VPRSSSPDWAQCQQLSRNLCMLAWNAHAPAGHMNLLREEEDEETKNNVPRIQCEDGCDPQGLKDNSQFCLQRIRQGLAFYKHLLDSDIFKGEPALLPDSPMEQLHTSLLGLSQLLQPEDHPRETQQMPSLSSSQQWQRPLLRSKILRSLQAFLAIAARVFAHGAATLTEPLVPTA
IL-23 (human, p19/p40 heterodimer) (Homo sapiens), one chain, as listed by the source, chain 1 of 2: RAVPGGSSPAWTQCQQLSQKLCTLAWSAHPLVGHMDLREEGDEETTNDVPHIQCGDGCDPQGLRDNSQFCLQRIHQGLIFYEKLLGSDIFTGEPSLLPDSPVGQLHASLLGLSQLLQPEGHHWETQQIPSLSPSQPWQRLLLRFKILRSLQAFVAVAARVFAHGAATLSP

Tests used:
[1] = tested on: IL-23 (human, p19/p40 heterodimer) (Homo sapiens); assay: filter binding; details: purified recombinant protein, protein details: R&D Systems, carrier free; for binding result: <parent clone
[2] = tested on: IL-23 (human, p19/p40 heterodimer) (Homo sapiens); assay: activity in cells; details: 2'-OMe C,U and many purines; multiple PS; 3'-idT [2'-OMe C2,C6,U10,U13,U14,U21,C23,C27,U32,U34 and many purines (positions not stated); PS 2-3,6-7,11-12,14-15,17-18,18-19,19-20,21-22 (N = PS linkage, left out); 3'-inverted dT 35]; Pathscan pSTAT3; purified recombinant protein; protein details: R&D Systems, carrier free; letters built from the parent sequence and the stated change; variant of ARC979
[3] = tested on: IL-23 (mouse, p19/p40 heterodimer) (Mus musculus); assay: activity in cells; details: 2'-F C,U; TransAM STAT3, multiple experiment average; purified recombinant protein; protein details: isolated in-house

| Sequence | binding result ([1]; deoxy A,G, 2'-OMe C,U) | also measured |
| --- | --- | --- |
| GGUACGGGGAGAGUGGGCUGGG [ARC1132] | binds more weakly |  |
| GGCGGUACGGGGAGUGUGGGUUGGGCC [ARC1123] | binds more weakly |  |
| GGCGGUACGGGGAGUGUGGGCUGGGGCC [ARC1120] | binds more weakly |  |
| ACAGGCAAGUAAUUGGGGAGUGCGGGCGGGGUGU [ARC1591] |  | binding signal ([1]; deoxy A,G, 2'-OMe C,U, dI at G4, 3'-idT [dI at 4 (parent G), 2'-OMe C,U at 2,6,10,13,14,21,23,27,32,34, deoxy A,G elsewhere, 3'-inverted dT at 35], 100 nM …, no Kd given, letters built from the parent sequence and the stated change, variant of ARC979): 54.8 % bound |
| GGAUCAUACACAAGAAGUGCUUCAUGCGGCAAACUGCAUGACGUCGAAUAGAUCC [B10.min2] |  | binding signal ([1]; 2'-F C,U, 100 nM IL-23): 1.6 +/- ratio |
| GGCGGUACGGGGGGAGUGGGCUGGGUC [ARC1128] | binds more weakly |  |
| GGUACGGGGGGAGUGGGCUGGG [ARC1130] | binds more weakly |  |
| GGUACGGGGAGUGUGGGCUGGG [ARC1122] | binds more weakly |  |
| GGUACGGGGAGUGUGGGCUGG [ARC1126] | binds more weakly |  |
| GGCGGUACGGGGAGUGUGGGUUGGGGCC [ARC1119] | binds more weakly |  |
| GGUACGGGGGGAGUGGGCUGG [ARC1131] | binds more weakly |  |
| GGAGUUACUCAGCGUCCGUAAGGGAUAUGCUCCGACUCC [A10.min3] |  | binding signal ([1]; 2'-F C,U, 100 nM IL-23): 1.6 +/- ratio |
| ACAGGCAAGUAAUUGGGGAGUGCGGGCGGUGU [ARC1118] | binds more weakly |  |
| ACAGGCAAGUAAUUGGGGAGUGCGGGCGGGGUGU [ARC1756] |  | IC50 [2]: 19 nM |
| GGCAAGUAAUUGGGGAGUGCGGGCGG [ARC1117] | binds more weakly |  |
| GGAGCGCACUCAGCCACUCUACUCGAUAUAGUUUAUCGAGCCGGUGGUAGAUUAUGAUUUCGACCUCUCUGCUAGC [ARC1630] |  | IC50 [3]: 16.6 nM |
| GGCGGUACGGGGAGAGUGGGCUGGGGUC [ARC1129] | binds more weakly |  |
| GGUACGGGGAGUGUGGGUUGGG [ARC1121] | binds more weakly |  |
| GGUACGGGGAGUGUGGGUUGG [ARC1125] | binds more weakly |  |
| GGCGGUCCGCAUUGAUGUCAGUUAUGCGUAGCUCCGCC [C10.2] |  | binding signal ([1]; 2'-F C,U, 100 nM IL-23, variant of AMX84-C10): 1.5 +/- ratio |
| GGCGGUACGGGGGGAGUGGGCUGGGGUC [ARC1127] | binds more weakly |  |
| GGCGGUACGGGGAGUGUGGGCUGGGCC [ARC1124] | binds more weakly |  |
